{"source": "paper PMC9359917", "test_system": "nucleolin (NCL)", "assay": "NCL-triggered DNA filament assembly (confocal microscopy and AFM; indirect read-out)", "conditions": "aptamer used with dual-responsive DNA tile, filaments assemble after NCL, disassemble after ATP; Filaments in 1x TAE with 20 mM MgCl2 (stated for other filament assays); water-in-oil droplets; pH and temperature not given; folded or branched DNA", "note": "Construct, isoform or probe ends are uncertain for at least one entry. At least one verdict rests on a figure or table, not on a statement of the authors.", "data": [{"sequence": "GGTGGTGGTGGTTGTGGTGGTGGTGG [Nucleolin aptamer (dual-aptamer reaction)]", "values": [{"measurement": "binding result", "value": "binds"}]}]}
